{"source": "PubChem BioAssay AID1224830, NIAID, 2016", "aim": "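Host factors that control LPS-induced TNF expression in human macrophages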 (primary screen)", "cell system": "human THP-1 monocytic leukaemia cells, TNF dual-luciferase reporter clone, PMA-differentiated to macrophage-like cells", "reagent": "siRNA pool against human genes, 50 nM", "duration": "LPS for 4 h, given about 3 days after siRNA transfection", "treatment": "bacterial LPS (TLR4 ligand), 10 ng/ml", "measured": "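Ratio of firefly to renilla light, scaled to the plate median and expressed as a robust z-score per replicate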", "reading the numbers": "TNF reporter robust z-score: higher = stronger TNF reporter response to LPS", "call rule": "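a well is active when its z-score exceeds 2.8 or falls below -1.5; control wells carry no call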", "note": "The whole screen tested about 18,000 reagents; this is a random part of them. About 2,900 of all reagents (16%) were called active. 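Calls are made per well; low scores hint the gene aids the LPS response, high scores that it dampens it.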 Repeated entries: four replicate wells of each siRNA pool."}
{"Target gene": "IL1R1", "TNF reporter robust z-score": -0.86, "Call": "inactive"}
{"Target gene": "IL1R1", "TNF reporter robust z-score": -0.14, "Call": "inactive"}
{"Target gene": "IL1R1", "TNF reporter robust z-score": 0.12, "Call": "inactive"}
{"Target gene": "IL1R1", "TNF reporter robust z-score": 0.48, "Call": "inactive"}
{"Target gene": "UBE2R2", "TNF reporter robust z-score": -0.94, "Call": "inactive"}
{"Target gene": "UBE2R2", "TNF reporter robust z-score": 0.06, "Call": "inactive"}
{"Target gene": "UBE2R2", "TNF reporter robust z-score": 0.3, "Call": "inactive"}
{"Target gene": "UBE2R2", "TNF reporter robust z-score": 1.19, "Call": "inactive"}
{"Target gene": "ALDH16A1", "TNF reporter robust z-score": 0.3, "Call": "inactive"}
{"Target gene": "ALDH16A1", "TNF reporter robust z-score": -0.31, "Call": "inactive"}
{"Target gene": "ALDH16A1", "TNF reporter robust z-score": 1.49, "Call": "inactive"}
{"Target gene": "ALDH16A1", "TNF reporter robust z-score": 0.21, "Call": "inactive"}
{"Target gene": "MT1HL1", "TNF reporter robust z-score": -1.13, "Call": "inactive"}
{"Target gene": "MT1HL1", "TNF reporter robust z-score": -0.64, "Call": "inactive"}
{"Target gene": "MT1HL1", "TNF reporter robust z-score": -0.7, "Call": "inactive"}
{"Target gene": "MT1HL1", "TNF reporter robust z-score": -1.37, "Call": "inactive"}
{"Target gene": "LRPAP1", "TNF reporter robust z-score": 0.26, "Call": "inactive"}
{"Target gene": "LRPAP1", "TNF reporter robust z-score": 0.42, "Call": "inactive"}
{"Target gene": "LRPAP1", "TNF reporter robust z-score": 1.31, "Call": "inactive"}
{"Target gene": "LRPAP1", "TNF reporter robust z-score": -0.83, "Call": "inactive"}
{"Target gene": "ARAP3", "TNF reporter robust z-score": -0.58, "Call": "inactive"}
{"Target gene": "ARAP3", "TNF reporter robust z-score": 1.02, "Call": "inactive"}
{"Target gene": "ARAP3", "TNF reporter robust z-score": 1.28, "Call": "inactive"}
{"Target gene": "ARAP3", "TNF reporter robust z-score": -0.35, "Call": "inactive"}
{"Target gene": "NVL", "TNF reporter robust z-score": -0.87, "Call": "inactive"}
{"Target gene": "NVL", "TNF reporter robust z-score": -0.31, "Call": "inactive"}
{"Target gene": "NVL", "TNF reporter robust z-score": 0.05, "Call": "inactive"}
{"Target gene": "NVL", "TNF reporter robust z-score": -0.23, "Call": "inactive"}
{"Target gene": "KBTBD4", "TNF reporter robust z-score": -0.43, "Call": "inactive"}
{"Target gene": "KBTBD4", "TNF reporter robust z-score": 0.89, "Call": "inactive"}
{"Target gene": "KBTBD4", "TNF reporter robust z-score": 0.25, "Call": "inactive"}
{"Target gene": "KBTBD4", "TNF reporter robust z-score": -0.03, "Call": "inactive"}
{"Target gene": "TMEM182", "TNF reporter robust z-score": 1.94, "Call": "inactive"}
{"Target gene": "TMEM182", "TNF reporter robust z-score": 2.75, "Call": "inactive"}
{"Target gene": "TMEM182", "TNF reporter robust z-score": 1.92, "Call": "inactive"}

Continued:
{"Target gene": "METTL27", "TNF reporter robust z-score": 0.91, "Call": "inactive"}
{"Target gene": "METTL27", "TNF reporter robust z-score": 1.03, "Call": "inactive"}
{"Target gene": "METTL27", "TNF reporter robust z-score": 0.76, "Call": "inactive"}
{"Target gene": "METTL27", "TNF reporter robust z-score": 1.34, "Call": "inactive"}
{"Target gene": "SLC3A1", "TNF reporter robust z-score": -0.55, "Call": "inactive"}
{"Target gene": "SLC3A1", "TNF reporter robust z-score": -0.51, "Call": "inactive"}
{"Target gene": "SLC3A1", "TNF reporter robust z-score": 0.27, "Call": "inactive"}
{"Target gene": "SLC3A1", "TNF reporter robust z-score": 0.21, "Call": "inactive"}
{"Target gene": "CSRP2", "TNF reporter robust z-score": -0.93, "Call": "inactive"}
{"Target gene": "CSRP2", "TNF reporter robust z-score": -0.73, "Call": "inactive"}
{"Target gene": "CSRP2", "TNF reporter robust z-score": -0.68, "Call": "inactive"}
{"Target gene": "CSRP2", "TNF reporter robust z-score": 0.1, "Call": "inactive"}
{"Target gene": "TCEAL1", "TNF reporter robust z-score": -1.76, "Call": "active"}
{"Target gene": "TCEAL1", "TNF reporter robust z-score": -1.94, "Call": "active"}
{"Target gene": "TCEAL1", "TNF reporter robust z-score": -1.8, "Call": "active"}
{"Target gene": "TCEAL1", "TNF reporter robust z-score": -1.7, "Call": "active"}
{"Target gene": "B3GAT1", "TNF reporter robust z-score": -0.58, "Call": "inactive"}
{"Target gene": "B3GAT1", "TNF reporter robust z-score": -0.32, "Call": "inactive"}
{"Target gene": "B3GAT1", "TNF reporter robust z-score": -0.84, "Call": "inactive"}
{"Target gene": "B3GAT1", "TNF reporter robust z-score": -0.06, "Call": "inactive"}
{"Target gene": "MIR99AHG", "TNF reporter robust z-score": -0.72, "Call": "inactive"}
{"Target gene": "MIR99AHG", "TNF reporter robust z-score": -0.68, "Call": "inactive"}
{"Target gene": "MIR99AHG", "TNF reporter robust z-score": -0.84, "Call": "inactive"}
{"Target gene": "MIR99AHG", "TNF reporter robust z-score": 0.07, "Call": "inactive"}
{"Target gene": "CCDC57", "TNF reporter robust z-score": 0.34, "Call": "inactive"}
{"Target gene": "CCDC57", "TNF reporter robust z-score": -0.49, "Call": "inactive"}
{"Target gene": "CCDC57", "TNF reporter robust z-score": -0.23, "Call": "inactive"}
{"Target gene": "CCDC57", "TNF reporter robust z-score": 0.85, "Call": "inactive"}
